In PubChem BioAssay AID2685 (National Center for Advancing Translational Sciences (NCATS), 2010):
The other results are listed elsewhere or left out. These are further read-outs of the screen, such as a control signal, another cell line or another target. No call is given for them. The list favours compounds with an active or inconclusive main result. The note in brackets gives the kind of curve behind each potency; many fits are weak.

Assay: qHTS Assay for Lipid Storage Modulators in Drosophila S3 Cells;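 for cell number change: cells counted by Cell Tracker Red CMTPX staining in the red channel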
Details: BODIPY lipid droplet fluorescence, 18-24 h; for cell number change: measured here: cell count max response, cells fed with added oleic acid
In short: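 Laser-scanning cytometry quantifies lipid droplet accumulation (500–530 nm total intensity; droplet/cell object ratio) in oleic acid-fed (400 uM added) Drosophila S3 cells treated with a concentration series. 20 uM Triacsin C defined 100% inhibition.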

[1] = measured here: lipid fluorescence (Fed channel) AC50, cells fed with added oleic acid
[2] = measured here: cell number channel AC50, cells fed with added oleic acid

Row | SMILES | cell number change [%] | AC50 [1] | AC50 [2]
1 | Cc1ccc(Cl)cc1N1CCN(C(=O)c2ccc3c(c2)CCN3S(C)(=O)=O)CC1 | 12.5 |  | 
2 | O=C(CN(C(=O)c1csnn1)c1ccc(Br)cc1)NC1CCCCC1 | 23.8 | 29.1 µM [rising, single point] | 
3 | O=C(CSc1ccsc1[N+](=O)[O-])N1CCN(c2ccccn2)CC1 | 44.5 |  | 4.61 µM [rising, full curve, poor fit]
4 | COc1ccccc1C(=O)N1CCN(C(=O)c2oc3ccc(C)cc3c2C)CC1 |  | 0.58 µM [rising, single point] | 0.58 µM [falling, single point]
5 | O=C(O)Cc1ccc(NC(=O)c2ccc3c(c2)C(=O)N(Cc2ccco2)C3=O)cc1 | 9.19 | 0.206 µM [rising, partial curve, poor fit] | 
6 | Cc1ccsc1C(=O)NN=C1CCCCCC1 | 28.2 | 0.58 µM [rising, single point] | 
7 | COc1ccc(-c2noc(CN3CCN(c4ccccc4)CC3)n2)cc1 | 49.4 |  | 6.51 µM [rising, single point]
8 | O=C1c2cccnc2C(=O)N1Cc1ccc(F)cc1S(=O)(=O)NCc1ccco1 | 9.79 |  | 
9 | Cc1ccc(C2=NN3C(C2)c2ccccc2OC32C(=O)Nc3ccccc32)cc1 (configuration not stated) | -37.1 | 6.51 µM [rising, single point] | 23.1 µM [falling, single point]
10 | O=C(NNC(=O)c1ccccc1Cl)c1csc(N2CCOCC2)n1 | 23 |  | 
11 | COc1ccc(Cl)cc1NC(=O)COc1ccc2c(c1)OCO2 | 19.3 | 0.58 µM [rising, full curve, poor fit] | 0.326 µM [rising, full curve, poor fit]
12 | CCN1C(=O)[C@H]2[C@@H](c3ccc(C)cc3)N3C(=O)N(c4cccc(C)c4)C(=O)[C@@]3(Cc3ccccc3)[C@H]2C1=O | -10 |  | 
13 | COCCOc1nc2c(c(=O)n(C)c(=O)n2C)n1CCc1ccccc1 | -32.2 |  | 32.6 µM [falling, single point]
14 | CCOC(=O)c1ccc(-n2c(CN3CCC(C(N)=O)CC3)nc3ccc([N+](=O)[O-])cc3c2=O)cc1 | 14.5 | 4.61 µM [rising, single point] | 1.84 µM [rising, partial curve]
15 | COc1cc2[nH]c3c(Cl)ncnc3c2cc1OC | 26.2 | 29.1 µM [rising, single point] | 4.11 µM [rising, single point]
16 | Cc1ccc(C(=O)N2CCN(S(=O)(=O)c3ccccc3[N+](=O)[O-])CC2)o1 | 68.5 | 1.3 µM [falling, single point] | 14.6 µM [rising, partial curve]
17 | CCCCc1ccc(/C=C2/C(=O)ON=C2c2ccccc2)s1 | 16.6 | 1.16 µM [falling, single point] | 0.731 µM [falling, single point]
18 | O=C(COc1ccc(/C=N/NS(=O)(=O)c2ccccc2)cc1)NCCc1ccccc1 | -26.6 | 18.4 µM [falling, single point] | 
19 | COCCCNc1nc2c(c(=O)n(Cc3ccc(OC)cc3)c(=O)n2C)n1C | 26.1 | 13 µM [rising, partial curve, poor fit] | 
20 | CCN1C(=O)C(=O)N(CC(=O)N(C)CC(=O)Nc2ccccc2Cl)C1=O | 12.8 | 16.4 µM [falling, single point] | 

Row | SMILES | cell number change [%] | AC50 [1] | AC50 [2]
21 | Cc1cc(CC(=O)O)c(C)cc1CC(=O)O | 3.66 | 8.2 µM [rising, partial curve, poor fit] | 
22 | COc1ccc(S(N)(=O)=O)cc1C(=O)NCCCN1CCN(c2ccccc2OC)CC1 | 17.2 | 0.291 µM [falling, full curve, poor fit] | 
23 | Cc1cc(C)cc(N(CC(=O)NC2CCCCC2)C(=O)CCCC(=O)Nc2ccccn2)c1 | 16.2 | 29.1 µM [rising, single point] | 
24 | CC1CN(S(=O)(=O)c2cccs2)CC(C)O1 (configuration not stated) | -5.49 |  | 
25 | O=S(=O)(c1ccc2c(c1)CCN2)N1CCCC1 | 2.32 | 0.013 µM [rising, full curve, poor fit] | 
26 | Cc1ccc(/C=N/NC(=O)c2nnn(-c3nonc3N)c2-c2cccs2)cc1 |  | 18.4 µM [rising, partial curve] | 
27 | O=c1c(Br)c(N2CCCC2)cnn1-c1ccccc1 | -16.4 |  | 
28 | COc1ccc2c(c1)c(=O)oc1c(C)c(OCc3ccc(C(=O)O)cc3)ccc12 | 16.5 | 29.1 µM [rising, partial curve, poor fit] | 
29 | FC(F)(F)c1cccc(NC(=S)Nc2ccc(Cl)c(Cl)c2)c1 | -60 |  | 29.1 µM [falling, single point]
30 | COc1ccc(CCN=C(N)NS(=O)(=O)c2cccs2)cc1OC | -9.97 | 0.00461 µM [falling, full curve, poor fit] | 
31 | CCc1nc2nc(C)cc(Nc3cccc(C(F)(F)F)c3)n2n1 | -8.32 | 2.91 µM [rising, partial curve] | 
32 | Cc1cccc(OCC(=O)Nc2ccc(N3CCN(C(=O)c4ccccc4)CC3)cc2)c1 |  | 3.66 µM [rising, full curve] | 
33 | O=C1COc2ccc(C(=O)COC(=O)c3cccnc3Cl)cc2N1 |  |  | 2.06 µM [rising, partial curve, poor fit]
34 | CCCc1cc(-c2nc(-c3ccc(Cl)cc3)cs2)ccn1 | -25.9 | 16.4 µM [falling, single point] | 
35 | O=C(c1cc2ccccc2oc1=O)N1CCN(c2ncccn2)CC1 |  | 6.51 µM [rising, single point] | 
36 | COc1ccc(CN(C(=O)CN2C(=O)c3ccccc3S2(=O)=O)C(C(=O)NCC2CCCO2)c2ccncc2)cc1 (configuration not stated) | 23.8 | 6.51 µM [falling, single point] | 2.06 µM [falling, partial curve]
37 | CCOC(=O)c1nc(C)sc1-c1ccnn1S(=O)(=O)c1ccc(C)cc1 | -45.6 | 20.6 µM [falling, single point] | 
38 | O=C(O)CSC(=S)N1CCCCC1 | -26.5 | 2.31 µM [rising, partial curve, poor fit] | 6.51 µM [rising, partial curve, poor fit]
39 | O=C(Nc1cccc(Cl)c1)NC1CC2CCC1C2 (configuration not stated) | -23 | 29.1 µM [falling, single point] | 
40 | CC(=O)c1ccc(NC(=O)C2CC(=O)N(C(C)C)C2)cc1 (configuration not stated) | 27.4 |  | 0.13 µM [falling, full curve, poor fit]

Row | SMILES | cell number change [%] | AC50 [1] | AC50 [2]
41 | COC(=O)c1cc(-c2ccc(Br)cc2)on1 | -12.8 |  | 
42 | O=C(N/N=C/c1ccc(OC(=O)c2ccccc2Br)cc1)c1ccccn1 | 36.2 | 2.31 µM [rising, partial curve] | 3.66 µM [rising, partial curve, poor fit]
43 | CCOc1ccccc1N1C(=O)CC(Nc2ccc(N3CCOCC3)cc2)C1=O (configuration not stated) | -20.4 | 0.291 µM [rising, partial curve, poor fit] | 
44 | Cc1cccc(N=C2NN=C(c3ccccc3F)CS2)c1C | 17.6 | 0.731 µM [falling, single point] | 
45 | CC(=O)c1cnc2n(c1=O)CCS2 | -37.7 | 0.231 µM [falling, full curve] | 0.00517 µM [falling, full curve, poor fit]
46 | COC(=O)c1cc(=O)nc2sc3cc(OC)ccc3n12 | -1.09 | 2.06 µM [rising, partial curve] | 
47 | COc1ccc(C(=O)N(CC(=O)NC(C)(C)C)c2ccc3c(c2)OCCO3)cc1OC | 10.2 | 0.00517 µM [rising, full curve, poor fit] | 
48 | Cc1cccnc1NC(=O)CCc1c[nH]c2ccccc12 | 0.549 | 0.0206 µM [rising, full curve, poor fit] | 
49 | O=C(NC1CCCCC1)C(c1cccs1)N(Cc1cccs1)C(=O)c1ccco1 (configuration not stated) | 2.09 | 29.1 µM [falling, single point] | 
50 | O=C1CC(C(=O)Nc2ccc(Cl)cc2)n2ncnc2N1 (configuration not stated) | -43.8 |  | 23.1 µM [falling, single point]
51 | COc1ccc(-c2nnc(-c3cccnc3)o2)cc1OC | 24.2 | 23.1 µM [rising, single point] | 
52 | O=C(Nc1cccc(Cl)c1)NC1(C(=O)NCc2cccs2)CCCCC1 |  | 6.51 µM [falling, single point] | 6.51 µM [falling, single point]
53 | COc1ccc(-c2cc(C(F)(F)F)n3nc(C(=O)N4CCOCC4)nc3n2)cc1 |  | 29.1 µM [rising, partial curve] | 
54 | CN(C)/C=N/c1[nH]ncc1C#N | -4.17 |  | 
55 | CC12CCC(C)(c3nc4ccccc4nc31)C2(C)C | 73.2 |  | 
56 | Cn1nc(C(C)(C)C)c([N+](=O)[O-])c1C(=O)NC(C)(C)C | -6.97 | 1.3 µM [falling, full curve, poor fit] | 
57 | CC(=O)Nc1ccc(NS(=O)(=O)c2ccc3[nH]c(=O)[nH]c3c2)cc1 | 42.4 | 29.1 µM [rising, single point] | 0.92 µM [rising, full curve, poor fit]
58 | COc1ccccc1OCCNC(=O)C1CC(=O)N(Cc2ccccc2)C1 (configuration not stated) | 18.9 | 0.092 µM [rising, full curve, poor fit] | 
59 | COc1ccccc1C(=O)NC(=O)COc1cc(Cl)ccc1Cl | 11.4 |  | 
60 | COc1ccc(C(=O)N/N=C/c2cccc3cccnc23)cc1 | 38.3 | 29.1 µM [rising, single point] | 18.4 µM [rising, single point]

Looked up above.
AC50 [1], COc1ccc(-c2cc(C(F)(F)F)n3nc(C(=O)N4CCOCC4)nc3n2)cc1 reads 29.1 µM [rising, partial curve]
cell number change [%], COc1ccc(C(=O)N(CC(=O)NC(C)(C)C)c2ccc3c(c2)OCCO3)cc1OC reads 10.2
AC50 [2], COc1ccc(C(=O)N/N=C/c2cccc3cccnc23)cc1 reads 18.4 µM [rising, single point]

From compound 58 as far as 59, copied from above:
Row | SMILES | cell number change [%] | AC50 [1] | AC50 [2]
58 | COc1ccccc1OCCNC(=O)C1CC(=O)N(Cc2ccccc2)C1 (configuration not stated) | 18.9 | 0.092 µM [rising, full curve, poor fit] | 
59 | COc1ccccc1C(=O)NC(=O)COc1cc(Cl)ccc1Cl | 11.4 |  | 
